Results as given in PubChem BioAssay AID190 (DTP/NCI, 2004).
The list shows only some results of the screen, not a fair sample: it gathers tests that were run many times, whatever their T/C, doses with no T/C, and many T/C values between a quarter and a half above the control. Other doses and runs of a compound stand elsewhere. T/C is the treated group as % of the vehicle group. Some doses have a count of surviving animals in place of a T/C: the source holds a T/C of zero for them, seemingly a mark for toxic or unscored doses. Some survivor counts are full or nearly so, which does not show that the dose was tolerated: survival well below the control is almost never listed, so the zero probably covers shortened survival too. Survivors were counted at the toxicity check, usually on the fifth day, unless a day is given; later deaths do not show. Schedule codes are those of the source, read here as Q, the interval in days (D) or hours (H), X, the number of doses. Some entries were tested several times; the results are listed from low to high. Some schedule codes hold Z or #, which are not explained here. For survival time, this PubChem deposit counts one and a half times the control or more as active, and values a quarter to a half above the control carry no call in these data; other NCI protocols may use other cut-offs. Some T/C values carry the count of animals alive at the toxicity check (mostly the fifth day); without a count, all were alive then. Marks such as (2×) stand for listed records that agree.

System: AKR/Lw mice, AKR lymphoma ip, median survival T/C
Experiment: NCI In Vivo Anticancer Drug Screen. Data for tumor model Lymphoma AKR (Transplanted) (intraperitoneal) in AKR/Lw mice
Conditions: T/C endpoint: median survival time, higher T/C = longer survival
Description: The antitumor activity of compounds was measured in mice bearing transplantable tumors. Survival or tumor size were measured and the results are expressed as the measurement made in the treated group (T) divided by the measurement made in the vehicle treated control group (C). The tumor model used in this assay is Lymphoma AKR (Transplanted) (intraperitoneal) in AKR/Lw mice

[1] = dose: 100.0 mg/kg/injection, schedule: Q04DX003 (sc), vehicle: steroid suspending solution
[2] = dose: 200.0 mg/kg/injection, schedule: Q04DX003 (sc), vehicle: steroid suspending solution
[3] = dose: 400.0 mg/kg/injection, schedule: Q01DX001 (sc), vehicle: steroid suspending solution
[4] = dose: 100.0 mg/kg/injection, schedule: Q01DX001 (ip), vehicle: saline
[5] = dose: 200.0 mg/kg/injection, schedule: Q01DX001 (ip), vehicle: saline
[6] = dose: 400.0 mg/kg/injection, schedule: Q01DX001 (ip), vehicle: saline
[7] = dose: 200.0 mg/kg/injection, schedule: Q01DX001 (ip), vehicle: Klucel (hydroxypropylcellulose) (HPC)
[8] = dose: 50.0 mg/kg/injection, schedule: Q01DX009 (ip), vehicle: saline
[9] = dose: 100.0 mg/kg/injection, schedule: Q01DX009 (ip), vehicle: saline
[10] = dose: 150.0 mg/kg/injection, schedule: Q04DX003 (ip), vehicle: Klucel (hydroxypropylcellulose) (HPC)
[11] = dose: 400.0 mg/kg/injection, schedule: Q01DX009 (ip), vehicle: Klucel (hydroxypropylcellulose) (HPC)
[12] = dose: 400.0 mg/kg/injection, schedule: Q04DX003 (ip), vehicle: Klucel (hydroxypropylcellulose) (HPC)
[13] = dose: 500.0 mg/kg/injection, schedule: Q04DX003 (ip), vehicle: Klucel (hydroxypropylcellulose) (HPC)
[14] = dose: 600.0 mg/kg/injection, schedule: Q04DX003 (ip), vehicle: saline

## C[C@]12C=CC(=O)C=C1CC[C@@H]1[C@@H]2C(=O)C[C@@]2(C)[C@H]1CC[C@]2(O)C(=O)CO
dose: 12.5 mg/kg/injection, schedule: Q01DX004 (sc), vehicle: steroid suspending solution
  survivor count: 10 of 10
dose: 25.0 mg/kg/injection, schedule: Q01DX009 (sc), vehicle: steroid suspending solution
  survivor count: 10 of 10
dose: 50.0 mg/kg/injection, schedule: Q01DX001 (sc), vehicle: steroid suspending solution
  T/C: 90, 97, 110, 128 % of control
dose: 50.0 mg/kg/injection, schedule: Q01DX009 (sc), vehicle: Klucel (hydroxypropylcellulose) (HPC)
  survivor count: 10 of 10
dose: 50.0 mg/kg/injection, schedule: Q01DX009 (sc), vehicle: steroid suspending solution
  survivor count: 9 of 10 and 10 of 10
dose: 75.0 mg/kg/injection, schedule: Q01DX009 (sc), vehicle: steroid suspending solution
  survivor count: 10 of 10
dose: 75.0 mg/kg/injection, schedule: Q04DX003 (ip), vehicle: saline
  survivor count: 10 of 10
dose: 75.0 mg/kg/injection, schedule: Q04DX003 (sc), vehicle: steroid suspending solution, evaluated on day 45
  T/C: 113 (2×) and 117 % of control
dose: 75.0 mg/kg/injection, schedule: Q04DX003 (sc), vehicle: steroid suspending solution, evaluated on day 60
  T/C: 111 % of control
dose: 100.0 mg/kg/injection, schedule: Q01DX001 (sc), vehicle: steroid suspending solution
  T/C: 89, 92, 93, 95 % of control
dose: 100.0 mg/kg/injection, schedule: Q01DX009 (sc), vehicle: Klucel (hydroxypropylcellulose) (HPC)
  survivor count: 10 of 10
dose: 100.0 mg/kg/injection, schedule: Q01DX009 (sc), vehicle: steroid suspending solution
  survivor count: 10 of 10
[1]
  T/C: 97, 108, 125 % of control [8 of 10 alive]
  survivor count: 8 of 10 and 10 of 10
dose: 100.0 mg/kg/injection, schedule: Q## X008 (sc), vehicle: steroid suspending solution
  survivor count: 10 of 10
dose: 150.0 mg/kg/injection, schedule: Q01DX009 (sc), vehicle: steroid suspending solution
  survivor count: 10 of 10
dose: 200.0 mg/kg/injection, schedule: Q01DX004 (sc), vehicle: steroid suspending solution
  survivor count: 9 of 10
dose: 200.0 mg/kg/injection, schedule: Q01DX009 (ip), vehicle: water
  survivor count: 10 of 10
dose: 200.0 mg/kg/injection, schedule: Q01DX009 (sc), vehicle: Klucel (hydroxypropylcellulose) (HPC)
  survivor count: 10 of 10
[2]
  T/C: 135 % of control
  survivor count: 7 of 10 and 10 of 10
dose: 300.0 mg/kg/injection, schedule: Q01DX004 (sc), vehicle: steroid suspending solution
  survivor count: 10 of 10
[3]
  T/C: 93, 104, 111 % of control
  survivor count: 10 of 10
dose: 400.0 mg/kg/injection, schedule: Q01DX004 (sc), vehicle: steroid suspending solution
  survivor count: 10 of 10
dose: 400.0 mg/kg/injection, schedule: Q01DX009 (ip), vehicle: water
  survivor count: 10 of 10
dose: 400.0 mg/kg/injection, schedule: Q04DX003 (sc), vehicle: steroid suspending solution
  survivor count: 9 of 10

## Oc1cccc[c]1[Hg][Cl]
[4]
  survivor count: 0 of 10
[5]
  survivor count: 0 of 10
[6]
  survivor count: 0 of 10

## CC(=O)c1ccc2ccccc2c1O
dose: 100.0 mg/kg/injection, schedule: Q01DX001 (ip), vehicle: Klucel (hydroxypropylcellulose) (HPC)
  survivor count: 10 of 10
dose: 100.0 mg/kg/injection, schedule: Q01DX001 (ip), vehicle: other
  T/C: 125 % of control

## NC(=O)C(Br)CBr (stereo not given)
[6]
  survivor count: 0 of 10

## COc1cc2c(cc1OC)[C@H]1CNC[C@H]1[C@@H](c1ccccc1)C2
dose: 300.0 mg/kg/injection, schedule: Q04DX003 (ip), vehicle: saline
  survivor count: 6 of 10

## COc1ccc(CCN2C(=O)CSC2=S)cc1OC
[7]
  survivor count: 10 of 10

## CN(C)C(C)(C)CNc1ccc(C(=O)O)cc1
[5]
  survivor count: 10 of 10

## CN(C)/N=N/c1nc[nH]c1C(N)=O
dose: 12.5 mg/kg/injection, schedule: Q01DX009 (ip), vehicle: saline
  survivor count: 10 of 10
dose: 50.0 mg/kg/injection, schedule: Q01DX009 (ip), vehicle: Klucel (hydroxypropylcellulose) (HPC)
  T/C: 126 % of control [9 of 10 alive]
[8]
  T/C: 118 [9 of 10 alive], 131, 140 % of control [9 of 10 alive]
  survivor count: 10 of 10
dose: 65.0 mg/kg/injection, schedule: Q01DX005 (ip), vehicle: Klucel (hydroxypropylcellulose) (HPC)
  T/C: 144 % of control
[4]
  T/C: 125 % of control
dose: 100.0 mg/kg/injection, schedule: Q01DX009 (ip), vehicle: Klucel (hydroxypropylcellulose) (HPC)
  T/C: 141 % of control [9 of 10 alive]
[9]
  T/C: 112, 122, 133, 163 % of control
  survivor count: 8 of 10
[10]
  T/C: 125 and 126 % of control
  survivor count: 10 of 10
dose: 150.0 mg/kg/injection, schedule: Q04DX003 (ip), vehicle: saline, evaluated on day 45
  T/C: 90 [9 of 10 alive], 113 (2×), 121 % of control
dose: 150.0 mg/kg/injection, schedule: Q04DX003 (ip), vehicle: saline, evaluated on day 60
  T/C: 125 % of control
[7]
  T/C: 127 % of control
dose: 200.0 mg/kg/injection, schedule: Q01DX009 (ip), vehicle: Klucel (hydroxypropylcellulose) (HPC)
  T/C: 131 % of control
dose: 200.0 mg/kg/injection, schedule: Q01DX009 (ip), vehicle: saline
  T/C: 89, 105, 123, 140 % of control
dose: 300.0 mg/kg/injection, schedule: Q01DX005 (ip), vehicle: Klucel (hydroxypropylcellulose) (HPC)
  survivor count: 10 of 10
dose: 300.0 mg/kg/injection, schedule: Q04DX003 (ip), vehicle: Klucel (hydroxypropylcellulose) (HPC)
  T/C: 90 [9 of 10 alive], 102 [9 of 10 alive], 105, 130 [9 of 10 alive], 141 % of control [9 of 10 alive]
dose: 300.0 mg/kg/injection, schedule: Q04DX003 (ip), vehicle: saline, evaluated on day 45
  T/C: 113, 115, 135, 142 % of control
dose: 300.0 mg/kg/injection, schedule: Q04DX003 (ip), vehicle: saline, evaluated on day 60
  T/C: 140 % of control
dose: 400.0 mg/kg/injection, schedule: Q01DX001 (ip), vehicle: Klucel (hydroxypropylcellulose) (HPC)
  T/C: 94, 105, 113, 117 % of control
dose: 400.0 mg/kg/injection, schedule: Q01DX005 (ip), vehicle: Klucel (hydroxypropylcellulose) (HPC)
  survivor count: 10 of 10
dose: 400.0 mg/kg/injection, schedule: Q01DX005 (ip), vehicle: water
  survivor count: 10 of 10
[11]
  T/C: 128 % of control
  survivor count: 9 of 10
dose: 400.0 mg/kg/injection, schedule: Q01DX009 (ip), vehicle: saline
  T/C: 146 % of control [9 of 10 alive]
[12]
  T/C: 87, 108, 126, 133 % of control
  survivor count: 10 of 10
dose: 500.0 mg/kg/injection, schedule: Q01DX001 (ip), vehicle: Klucel (hydroxypropylcellulose) (HPC)
  T/C: 129 % of control
[13]
  T/C: 126 % of control [9 of 10 alive]
  survivor count: 10 of 10
[14]
  T/C: 97, 109, 110, 113 % of control
  survivor count: 9 of 10
dose: 800.0 mg/kg/injection, schedule: Q01DX005 (ip), vehicle: water
  survivor count: 5 of 9
